Results are given in words; binding and its absence hold for the method and conditions named. Binding seen in cells or lysates may run through a third protein. Binding calls can cover weak binding; strength is not graded here. Tags and fused reporters may be left off the sequences shown.
Target: AKT (human (endogenous in 293T))
Test: co-IP; 293T cells with or without overexpressed CRLF1; precipitation with antibodies against AKT or SIN1 and protein A Sepharose beads; IP buffer 20 mM Tris pH 7.5, 150 mM NaCl, 1% Triton X-100, 1 mM EDTA; also with CRLF1 knock-down (Fig. 7C)

B1: cytokine receptor-like factor 1 (CRLF1), full length, C-terminal His-tagged (protein, UniProt O75462 38-422)
chain: AHTAVISPQDPTLLIGSSLLATCSVHGDPPGATAEGLYWTLNGRRLPPELSRVLNASTLALALANLNGSRQRSGDNLVCHARDGSILAGSCLYVGLPPEKPVNISCWSKNMKDLTCRWTPGAHGETFLHTNYSLKYKLRWYGQDNTCEEYHTVGPHSCHIPKDLALFTPYEIWVEATNRLGSARSDVLTLDILDVVTTDPPPDVHVSRVGGLEDQLSVRWVSPPALKDFLFQAKYQIRYRVEDSVDWKVVDDVSNQTSCRLAGLKPGTVYFVQVRCNPFGIYGSKKAGIWSEWSHPTAASTPRSERPGPGGGACEPRGGEPSSGPVRRELKQFLGWLKKHAYCSNLSFRLYDQWRAWMQKSHKTRNQDEGILPSGRRGTARGPAR
binding: binds
